Data published in article PMC5328659 (Journal of clinical toxicology, 2016).

Experiment: DZP quantification in plasma and brain by LC/MS
Type: in vivo, mice
Settings: for concentration at 5 min / concentration at 1 h: Swiss Webster, mouse, intraperitoneal, 10 mpk

CN1C(=O)CN=C(c2ccccc2)c2cc(Cl)ccc21 [DZP, diazepam]
Decrease of tissue and plasma levels of DZP at 1 h after dosing (DZP 10 mg/kg i.p.): at least 3 fold
concentration at 5 min (brain): 15000 ± 3000 nM
concentration at 1 h (brain): 1000 ± 100 nM
concentration at 5 min (plasma): 3000 ± 800 nM
concentration at 1 h (plasma): 400 ± 50 nM
